The values below come from PMC11591149.

For at least one entry, the source does not settle the construct or the ends of the probe.

The data set relates to GST-TsMafK (Tridacna squamosa). As to the kind of experiment: EMSA. To be noted: homodimer, one or two dimers per probe; Molecular Probes fluorescence-based EMSA kit (Invitrogen), manufacturer's instructions; pH and temperature not stated; recombinant protein; protein details: N-terminal GST (pGEX-4T-1). For orientation: A gel shift assay detects complexes by their altered migration in electrophoresis.

Regarding “TTAGATATTGTGATACAGCAGACTTGCGATTAGATATTGTGATACAGCAGACTTGCGA (double strand) [TsARE probe (TsATPGD promoter core element)]”, the binding result was “binds”.
